From PubChem BioAssay AID2417 (National Center for Advancing Translational Sciences (NCATS), 2010)
“And” between values parts separate entries of the source, which are not always exact repeats. Equal values may be shown once. Screen size: about 140,000 compounds; about 4,300 (3.1%) were called active. The inconclusive results got no clear call from the source; some entries with a clear call stand among them for comparison.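 The calls were made as follows: active = readout at or below -70, meaning at least 70% loss of cells showing the perinucleolar compartment, a nuclear body marking cancer cells; inconclusive = readout between -30 and a set limit; inactive = the rest.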

test: High Content Assay for Compounds that inhibit the Assembly of the Perinucleolar Compartment; conditions: PC3M PTB-GFP, PNC prevalence imaging, 16 h; at 10 µM; hits give low values;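 also: plate controls were DMSO wells for no effect and camptothecin positive control wells for full effect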
In short: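 Read-out is percentage of cells bearing a perinucleolar compartment, from automated 20x imaging of fixed, Hoechst-stained PC3M PTB-GFP cells. Cells were seeded 4 h, then exposed 16 h to compound (23 nl of library stock) in duplicate plates.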

SMILES	activity change (PNC), negative = inhibition
O=C(CSc1ccc(-c2ccco2)nn1)c1cccc([N+](=O)[O-])c1	inactive: 43.9%
CC(C)(C)NC(=O)CSc1nc2ccc(NC(=O)CSc3nnnn3Cc3ccccc3)cc2s1	inconclusive: -50.4%
COc1cc(OC)cc(C(=O)NCC(=O)OCC(=O)c2cc(OC)ccc2OC)c1	inconclusive: -32.3%
Cc1cc(NC(=O)c2ccc(NC(=O)c3cccs3)cc2)no1	inconclusive: -66.1%
CCCCCCOc1ccc(N2C(=O)CC(N3CCN(C(=O)c4ccco4)CC3)C2=O)cc1 (stereo unspecified)	inconclusive: -54.2%
Cc1cc(Nc2ncc(Cl)cc2Cl)n(-c2ccccc2C)n1	inconclusive: -34.4%
Cc1ccc(C(=O)O/N=C(\N)c2ccc(Br)cc2)cc1C	inconclusive: -34.1%
CCCn1c(C)cc(/C=C(\C#N)C(=O)OCC(=O)NC(=O)NCC)c1C	inconclusive: -60.1%
Cc1nc(SCC(=O)Nc2c(C)nn(C)c2C)c2cnn(-c3ccccc3)c2n1	inconclusive: -36.4%
CC1CCCN(CC(=O)Nc2ccc(S(=O)(=O)N3CCCCCC3)cc2)C1 (stereo unspecified)	inconclusive: -45.4%
O=c1[nH][nH]c(C(F)(F)F)c1C=NCc1ccc(Cl)cc1	inconclusive: -31.8%
COC(=O)C1CCN(C(=O)Cc2ccc(C)cc2)CC1	inconclusive: -40.5%
Cc1oc(CC(C)C)c(CN)c1C(=O)O	inactive: 33.9%
COc1cc(NC(=O)c2cc(CC(C)C)on2)c(OC)cc1Cl	inconclusive: -47%
CCOC(=O)N1CCN(Cc2nc3c(c(=O)n(C)c(=O)n3C)n2CCC(C)C)CC1	inconclusive: -31.8%
O=C1CC(SC(=NCc2ccc3c(c2)OCO3)Nc2ccccc2)C(=O)N1c1ccccc1 (stereo unspecified)	inconclusive: -30%
COc1nc(N)c(S(=O)(=O)c2ccccc2)cc1C#N	inconclusive: -52.1%
O=C(Cn1cnc2ccccc2c1=O)N1CCOCC1	inconclusive: -52.9%
CCOc1cc(CNc2ncnc3nc[nH]c23)ccc1OC	inconclusive: -47.5%
CCC(=O)OCCNc1cc(Sc2nccn2C)c2nonc2c1[N+](=O)[O-]	inconclusive: -31.3%
CCOc1cccc2cc(C(=O)Nc3ccccc3-c3ccccc3)c(=O)oc12	inactive: 59.4%
O=C(N1CCOCC1)N1CCC(NC(=O)C23CC4CC(CC(C4)C2)C3)CC1	inconclusive: -31%
CCC(C)NC(=O)COc1ccccc1[N+](=O)[O-] (stereo unspecified)	inconclusive: -57.6%

SMILES	activity change (PNC), negative = inhibition
COc1ccc(CCNC(=O)CSc2nnc(-c3ccccc3)c3ccccc23)cc1OC	inconclusive: -50.2%
COC(=O)C1=C(C)N(c2cc(Cl)cc(Cl)c2)C(=O)C1	inconclusive: -55.2%
O=C1CCCC2=C1C1(CCCC1)N=C(Nc1nc3ccccc3s1)N2	active: -117%
Cc1cc(C)c(C(N)=O)c(NCCc2ccccc2)n1	inconclusive: -55.8%
COc1ccc(/C=N/Nc2ncnc(Cl)c2N)cc1OC	inconclusive: -36.9%
CC1CC(C)CN(CC(=O)Nc2ccc(S(N)(=O)=O)cc2)C1 (stereo unspecified)	inconclusive: -74.4%
COc1cccc(-c2nnc3sc(-c4ccc(C)cc4)nn23)c1	inconclusive: -37.5%
COC(=O)C1=C(C)NC(=O)C1(Nc1ccc(Cl)cn1)C(F)(F)F (stereo unspecified)	inconclusive: -60.7%
Cc1ccc(C(=O)N2c3ccccc3N(Cc3ccccc3)C(=O)C2(C)C)cc1	inactive: -4.21%
Cc1nc(N2CCOCC2)nc(N2CCCCC2)c1[N+](=O)[O-]	inconclusive: -42%
Cc1ccc(SCC(=O)N2CCOCC2)cc1	inactive: -2.03%
CCOC(=O)C1CCCN(CCCc2ccccc2)C1 (stereo unspecified)	inactive: 218% and inactive: 22.4%
Cn1c(=O)cc(OCC(=O)NCCCN2CCN(c3cccc(Cl)c3)CC2)c2ccccc21	inconclusive: -32.9%
COC(=O)c1ccc(C2C(Oc3ccccc3)C(=O)N2CCc2ccc(OC)c(OC)c2)cc1 (stereo unspecified)	inconclusive: -47.3%
COc1ccc(OC2C(=O)N(c3ccc(C)c(C)c3)C2c2ccc(OC)c(OC)c2)cc1 (stereo unspecified)	inconclusive: -36.8%
CCN(CC)CCCNC(=O)Cn1nc(-c2ccccc2)ccc1=O	inconclusive: -38.1%
Cc1ccc(CCNC(=O)C2CCN(S(=O)(=O)c3cccc4nonc34)CC2)cc1	inconclusive: -51.6%
COc1cc(C(=O)Nc2ccc(S(=O)(=O)N(C)c3ccccc3)cc2)cc(OC)c1OC	inconclusive: -69.7%
S=C(c1ccc(-c2cc(Cl)ccc2Cl)o1)N1CCOCC1	inactive: 59.7%
CN(C)/C=C(/C#N)C(=O)c1cccc(Oc2ccc(C(C)(C)C)cc2)c1	inactive: -3.74%
COc1ccc(Cl)cc1NC(=O)Cn1nc(-c2ccc(C)cc2)n(C)c1=S	inconclusive: -36.4%
CCOc1ccc(C(=O)N/N=C/c2cccc3cccnc23)cc1	inactive: 15.3%
Cc1ccc(S(=O)(=O)N(C)CC(=O)OCc2nnc(-c3ccccc3)o2)cc1	inactive: -6.88%

Of the compounds above, four contain a furan ring, fused or not:
SMILES	activity change (PNC), negative = inhibition
O=C(CSc1ccc(-c2ccco2)nn1)c1cccc([N+](=O)[O-])c1	inactive: 43.9%
CCCCCCOc1ccc(N2C(=O)CC(N3CCN(C(=O)c4ccco4)CC3)C2=O)cc1 (stereo unspecified)	inconclusive: -54.2%
Cc1oc(CC(C)C)c(CN)c1C(=O)O	inactive: 33.9%
S=C(c1ccc(-c2cc(Cl)ccc2Cl)o1)N1CCOCC1	inactive: 59.7%

Further structures follow:

SMILES	activity change (PNC), negative = inhibition
O=S(=O)(Nc1cccnc1)c1cccc(C(F)(F)F)c1	active: -91.5%
Cc1cnc(C(=O)Nc2ccccc2-n2cccc2)cn1	inactive: -16.9%
Cc1cc(Br)c(NC(=O)COC(=O)C2CC2C)c(Br)c1 (stereo unspecified)	inconclusive: -79.1%
O=C(NCc1ccco1)C1CCN(c2nnc(-n3cccc3)s2)CC1	inconclusive: -64.4%
C=CCN1C(=O)C(Cc2ccc(OCC)cc2)S/C1=N\N=C\c1cccs1 (stereo unspecified)	inactive: 12.9%
Cn1c2c(c3ccccc31)CCSC2=O	inactive: -26.1%
O=C(CN1CCN(Cc2ccccc2)CC1)N=Nc1c(O)[nH]c2ccccc12	inactive: -14.4%
O=C(Nc1ccc2c(c1)nc1n2CCCCC1)c1cc(S(=O)(=O)N2CCOCC2)ccc1Cl	inconclusive: -35.7%
CCN1C(=O)/C(=C/c2ccc(C)s2)SC1=Nc1ccc(OC)cc1	inactive: 26%
CN1CCN(NC(=O)C2CC2)CC1	inconclusive: -31.8%
CCC1CCCCN1C(=S)Nc1ccc(C(C)=O)cc1 (stereo unspecified)	inactive: 83.7%
O=C(NC(=S)NNC(=O)c1ccccc1O)c1ccco1	inconclusive: -55.6%
Cc1cccc(C)c1NC(=O)CSc1nc(C)c(CC(=O)c2ccc(Br)cc2)c(C)c1C#N	inactive: 63%
CC(=O)Nc1cc2c(cc1C(=O)C(C)C)OCCO2	inconclusive: -76.5%
COc1ccc(C(=O)NC(=S)Nc2nc(C)c(C(=O)N(C)C)s2)cc1	inconclusive: -64.2%
CC(=O)Nc1cccc(Oc2ncnc3scc(-c4ccc(C)cc4)c23)c1	active: -83.1%
CCOC(=O)N1CCN(C(=O)c2nn(-c3cc(OC)cc(OC)c3)c(=O)c3ccccc23)CC1	inactive: 9.27%
COc1cccc(N/C(SCc2ccccc2Cl)=C(/C#N)C(=O)NCc2cccs2)c1	active: -125%
COc1cccc(NC(=O)N2CCCC(C(=O)NCc3ccc(F)cc3)C2)c1 (stereo unspecified)	inactive: 33.9%
Cc1cc(C)cc(NC(=S)N2CCN(CCO)CC2)c1	inconclusive: -35.8%
CCOC(=O)C(C(=O)Nc1ccccn1)C1CCCCC1 (stereo unspecified)	inactive: -6.46%
O=C(NCc1ccccc1)c1ccc(S(=O)(=O)N2CCCC2)cc1	inconclusive: -71.2%
COc1ccccc1Nc1ccc(C(=O)NC2CCCCC2)cn1	inactive: -22.6%

SMILES	activity change (PNC), negative = inhibition
Cc1nc2scc(-c3cccs3)c2c(=O)n1CC(=O)O	active: -80.1%
CSC1=NSC2=NC(=O)/C(=C\c3coc4ccccc4c3=O)C(=N)N12	inconclusive: -53.4%
C=CCn1c(COc2ccccc2-c2ccccc2)nnc1SCC(=O)NC(=O)NCc1ccco1	inconclusive: -44.6%
COCCCN1C(=O)c2ccc(C(=O)Nc3ccc(OC)cc3OC)cc2C1=O	inconclusive: -72.9%
CN1C(=O)C(CC(N)=O)N(NC(=O)c2ccc(Cl)cc2)C1=S (stereo unspecified)	inconclusive: -33.1%
COc1cccc(-c2csc(NC(C)=O)n2)c1	inactive: -5.13%
CC(C)(C)NC(=O)C(=O)NNC(=O)COc1ccccc1	inactive: 24.7%
O=C(NCC1CCCO1)C1CC(c2ccc(Cl)c(Cl)c2)=NO1 (stereo unspecified)	inconclusive: -44.6%
Fc1ccc(CSc2ncnc3nc[nH]c23)cc1	inconclusive: -37%
O=C(CSc1nc2c(c(=O)n1-c1ccc(Cl)cc1)SCC2)Nc1nccs1	inconclusive: -49.1%
CN1CCN(C(=O)CCc2nc3ccccc3c(=O)[nH]2)CC1	inconclusive: -48.1%
CN(C)CCOC(C1CCCCC1)C1CCCCC1	inconclusive: -34.3%
CCOC(=O)/C(=N/Nc1ccc(Cl)cc1)S(=O)(=O)c1ccc(Cl)cc1	inconclusive: -43.4%
O=C(N/C(=C/c1cccs1)C(=O)N1CCOCC1)c1ccco1	inconclusive: -52%
COc1nc(N(C)C)nc(N(OC)S(=O)(=O)c2ccccc2Cl)n1	inactive: 8.56%
CN(C(=O)COC(=O)c1ccccc1SCC(=O)NC1CCCCCCC1)C1CCS(=O)(=O)C1 (stereo unspecified)	inconclusive: -39.2%
COc1ccc(CSc2nnnn2C)cc1F	inconclusive: -45.2%
CCc1cc(C(=O)c2ccccc2OC)c(N)s1	inconclusive: -49.2%
Cc1c2ccccc2nc2c(F)c(NC(C)C)c(F)c(F)c12	inconclusive: -51.7%
Cc1nc(C)c(-c2csc(NCc3ccco3)n2)s1	inactive: 36.1%
CCC(C)(NC(=O)c1cccc(N2C(=O)CSC2c2ccccc2)c1)C(=O)Nc1ccccc1C (stereo unspecified)	inconclusive: -30.2%
